{"source": "PubChem BioAssay AID1259308 (NCATS, 2017)", "purpose": "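Genes whose loss raises luciferase production in HEK293 cells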 (primary screen)", "cell system": "human HEK293 embryonic kidney cells stably expressing firefly luciferase (HEK-CMV-Luc2-Hygro)", "knock-down reagent": "single siRNA against human genes, 0.8 pmol siRNA per well", "duration": "72 h", "read-out": "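Reporter luminescence and viable-cell signal on separate replicate plates, given as percent of non-targeting control and median/MAD z-scores, plus per-cell luciferase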", "direction": "total luciferase, z-score: higher = more reporter protein produced", "call rule": "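An siRNA counts as active if its total luciferase robust z-score exceeds 3; genes with two or more such siRNAs out of three were retested with fresh siRNAs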", "calls": "active = raised luciferase; inactive = no rise", "note": "The deposit covers about 59,000 reagents; shown is a random part of them. Over the whole deposit, about 1,510 (2.6%) were called active. 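Calls use total luciferase alone and ignore viability, so some active siRNAs may act by altering cell number.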 Unmarked entries are inactive. The numbers tell different reagents against one gene apart. Further read-outs or replicates are left out here."}
{"gene knocked down": "S100A1", "siRNA no.": 1, "total luciferase, z-score": 1.53}
{"gene knocked down": "S100A1", "siRNA no.": 2, "total luciferase, z-score": -2.11}
{"gene knocked down": "S100A1", "siRNA no.": 3, "total luciferase, z-score": 0.609}
{"gene knocked down": "TMIGD2", "siRNA no.": 1, "total luciferase, z-score": -0.0821}
{"gene knocked down": "TMIGD2", "siRNA no.": 2, "total luciferase, z-score": -0.0209}
{"gene knocked down": "TMIGD2", "siRNA no.": 3, "total luciferase, z-score": 2.03}
{"gene knocked down": "BLOC1S1", "siRNA no.": 1, "total luciferase, z-score": -0.488}
{"gene knocked down": "BLOC1S1", "siRNA no.": 2, "total luciferase, z-score": 2.41}
{"gene knocked down": "BLOC1S1", "siRNA no.": 3, "total luciferase, z-score": 0.67}
{"gene knocked down": "UNC93B2", "siRNA no.": 1, "total luciferase, z-score": -0.218}
{"gene knocked down": "UNC93B2", "siRNA no.": 2, "total luciferase, z-score": -0.213}
{"gene knocked down": "UNC93B2", "siRNA no.": 3, "total luciferase, z-score": 2.25}
{"gene knocked down": "UNC93B2", "siRNA no.": 4, "total luciferase, z-score": -0.323}
{"gene knocked down": "UNC93B2", "siRNA no.": 5, "total luciferase, z-score": "3.38 (active)"}
{"gene knocked down": "UNC93B2", "siRNA no.": 6, "total luciferase, z-score": "3.26 (active)"}
{"gene knocked down": "ITGA1", "siRNA no.": 1, "total luciferase, z-score": 0.153}
{"gene knocked down": "ITGA1", "siRNA no.": 2, "total luciferase, z-score": -0.283}
{"gene knocked down": "ITGA1", "siRNA no.": 3, "total luciferase, z-score": 0.45}
{"gene knocked down": "EIF4E2", "siRNA no.": 1, "total luciferase, z-score": -0.105}
{"gene knocked down": "EIF4E2", "siRNA no.": 2, "total luciferase, z-score": -0.00602}
{"gene knocked down": "EIF4E2", "siRNA no.": 3, "total luciferase, z-score": -1.35}
{"gene knocked down": "POLR1B", "siRNA no.": 1, "total luciferase, z-score": -0.561}
{"gene knocked down": "POLR1B", "siRNA no.": 2, "total luciferase, z-score": -1.86}
{"gene knocked down": "POLR1B", "siRNA no.": 3, "total luciferase, z-score": 0.164}

Records above whose target name begins with U or u:
{"gene knocked down": "UNC93B2", "siRNA no.": 1, "total luciferase, z-score": -0.218}
{"gene knocked down": "UNC93B2", "siRNA no.": 2, "total luciferase, z-score": -0.213}
{"gene knocked down": "UNC93B2", "siRNA no.": 3, "total luciferase, z-score": 2.25}
{"gene knocked down": "UNC93B2", "siRNA no.": 4, "total luciferase, z-score": -0.323}
{"gene knocked down": "UNC93B2", "siRNA no.": 5, "total luciferase, z-score": "3.38 (active)"}
{"gene knocked down": "UNC93B2", "siRNA no.": 6, "total luciferase, z-score": "3.26 (active)"}

Additional reagents follow.
{"gene knocked down": "PTPRB", "siRNA no.": 1, "total luciferase, z-score": -0.037}
{"gene knocked down": "PTPRB", "siRNA no.": 2, "total luciferase, z-score": -1.28}
{"gene knocked down": "PTPRB", "siRNA no.": 3, "total luciferase, z-score": 0.324}
{"gene knocked down": "ASB6", "siRNA no.": 1, "total luciferase, z-score": 1.28}
{"gene knocked down": "ASB6", "siRNA no.": 2, "total luciferase, z-score": 0.317}
{"gene knocked down": "ASB6", "siRNA no.": 3, "total luciferase, z-score": 1.22}
{"gene knocked down": "CACNG2", "siRNA no.": 1, "total luciferase, z-score": -0.586}
{"gene knocked down": "CACNG2", "siRNA no.": 2, "total luciferase, z-score": -0.482}
{"gene knocked down": "CACNG2", "siRNA no.": 3, "total luciferase, z-score": -0.534}
{"gene knocked down": "PANX3", "siRNA no.": 1, "total luciferase, z-score": -1.18}
{"gene knocked down": "PANX3", "siRNA no.": 2, "total luciferase, z-score": 0.965}
{"gene knocked down": "PANX3", "siRNA no.": 3, "total luciferase, z-score": 0.943}
{"gene knocked down": "RBMX2", "siRNA no.": 1, "total luciferase, z-score": 0.649}
{"gene knocked down": "RBMX2", "siRNA no.": 2, "total luciferase, z-score": 0.18}
{"gene knocked down": "RBMX2", "siRNA no.": 3, "total luciferase, z-score": 2.01}
{"gene knocked down": "USE1", "siRNA no.": 1, "total luciferase, z-score": -1.44}
{"gene knocked down": "USE1", "siRNA no.": 2, "total luciferase, z-score": 0.468}
{"gene knocked down": "USE1", "siRNA no.": 3, "total luciferase, z-score": 1.32}
